# This is one part of the list. For some of these results: The exact form of the protein is not confirmed.
# Experiments:
# Test in all cases: protein microarray (ProtoArray v5.0), streptavidin-Alexa Fluor 647
# Conditions in all cases: 3'-biotin; 20 mM Tris (pH 7.5), 5 mM MgCl2, 100 mM KCl, 0.1% Tween-20, A/T-rich and random oligonucleotide blockers; temperature not stated; high values mean tight binding
# [1] = target: T1, LIMS2 (UniProt Q7Z4I7)
# T1 sequence: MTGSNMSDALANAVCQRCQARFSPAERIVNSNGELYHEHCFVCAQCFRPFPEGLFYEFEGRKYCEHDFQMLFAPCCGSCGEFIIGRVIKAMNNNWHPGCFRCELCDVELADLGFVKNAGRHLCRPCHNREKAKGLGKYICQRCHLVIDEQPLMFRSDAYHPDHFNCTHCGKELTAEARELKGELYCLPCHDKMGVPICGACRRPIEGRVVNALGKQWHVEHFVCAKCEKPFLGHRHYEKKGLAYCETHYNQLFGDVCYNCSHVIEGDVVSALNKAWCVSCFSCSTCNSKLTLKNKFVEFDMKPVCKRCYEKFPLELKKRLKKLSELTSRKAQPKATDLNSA
# [2] = system: LMAN1L (human)
# [3] = system: LMX1A (human)
# [4] = system: LOC113386 (human)
# [5] = system: LOC144631 (human)
# [6] = system: LOC145846 (human)
# [7] = system: LOC153684 protein (human)
# [8] = system: LOC170425 (human)
# [9] = system: LOC201725 (human)
# [10] = system: LOC202459 (human)
sequence,measurement,setting,value
GGTGACAGGGGTATGGGGAGGGG [G4-2 biotinylated (Ct1)],binding signal,[1],3.87 z-score
same,binding signal,[2],-0.39 z-score
same,binding signal,[3],-0.395 z-score
same,binding signal,[4],-0.387 z-score
same,binding signal,[5],-0.369 z-score
same,binding signal,[6],-0.374 z-score
same,binding signal,[7],6.45 z-score
same,binding signal,[8],-0.374 z-score
same,binding signal,[9],-0.397 z-score
same,binding signal,[10],-0.38 z-score

# Reformatted tab-delimited: part of the list above
sequence	measurement	setting	value
GGTGACAGGGGTATGGGGAGGGG [G4-2 biotinylated (Ct1)]	binding signal	[7]	6.45 z-score
same	binding signal	[8]	-0.374 z-score
